Experimental data taken from US11077080B2, “Use of anti-connexin agents for modulating the therapeutic effect of psychotropic drugs” (Commissariat A L'Energie Atomique Et Aux Energies …, priority 2008, dated 2021).
At least one structure is not confirmed: it was looked up by name or label, or the drawing left a doubt.

Tested on: electrical activity of the prefrontal cortex
Test: Quantitative EEG spectral analysis (FFT relative powers) in conscious rats
Assay type: in vivo, Wistar rats
Details: clozapine 0.2 mg/kg ip, MFA 80 ng/kg submeningeal
Description: A group of 6 conscious Wistar rats was pre-implanted with 6 bipolar bilateral electrodes (2 frontal, 2 anterior hippocampic, 2 posterior hippocampic).
Different treatments were conducted by circular combination of 6 rats by treatment (psychotropic treatment alone, anti-connexin treatment alone, anti-connexin+psychotropic combination treatment). The injection of meclofenamic acid (Sigma) is performed by slow submeningeal injection (80 ng/kg, 4.5 pg/second) or intraperitoneally at different doses. The injection of glycyrrhetinic acid (Sigma) is performed by submeningeal injection (80 ng/kg). The injection of clozapine (Sigma) is performed intraperitoneally (0.2 mg/kg). The injection of paroxetine (Sigma) is performed intraperitoneally (0.5 mg/kg). The injection of modafinil (Cephalon) is performed intraperitoneally (125 mg/kg and 250 mg/kg). […]
The data obtained from the relative quantitative EEG analysis of the effects of the different drugs administered individually (psychotropic alone or anti-connexin agents alone), presented in the examples, were subjected to a statistical analysis by analysis of variance (ANOVA) with three factors: “Frequency” (by Hz), “Time” (first and second hour by 12 averaged 5-minute repetitions) and “Animal” (6 different animals for each treatment). […]

Question: Which “minute-by-minute fluctuation of relative power at 8 Hz” value does the source give for CN1CCN(C2=Nc3cc(Cl)ccc3Nc3ccccc32)CC1 [clozapine] here?
Answer: high-amplitude fluctuations
